Measured values as given in patent publication US20090035319A1.
No constants are given. Whether binding was seen depends on the method and setting. Some binding calls cover weakened binding; strength is not graded here.

Biological target: T1, C3a Receptor polypeptide (SEQ ID NO:2) (human) (UniProt Q16581)
T1 sequence: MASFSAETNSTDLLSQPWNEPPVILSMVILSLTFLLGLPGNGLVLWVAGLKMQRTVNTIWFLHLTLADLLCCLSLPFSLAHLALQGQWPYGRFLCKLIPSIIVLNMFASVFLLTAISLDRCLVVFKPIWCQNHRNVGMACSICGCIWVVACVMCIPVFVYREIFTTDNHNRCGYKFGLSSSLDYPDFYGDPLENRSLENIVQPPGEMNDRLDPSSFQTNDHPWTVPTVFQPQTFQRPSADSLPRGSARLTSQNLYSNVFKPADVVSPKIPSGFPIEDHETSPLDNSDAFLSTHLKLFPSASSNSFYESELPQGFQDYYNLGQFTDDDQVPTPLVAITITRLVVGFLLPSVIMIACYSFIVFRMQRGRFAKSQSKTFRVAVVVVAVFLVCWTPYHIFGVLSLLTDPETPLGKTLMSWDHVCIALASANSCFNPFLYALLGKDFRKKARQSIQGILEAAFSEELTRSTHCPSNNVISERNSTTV
Experiment: phage display selection; no assay details or data reported

B1: scFv D098G01 (scFv)
scFv: EVQLVQSGAEVRKPGASVKVSCKASGYSFTNYGITWVRQAPGQGLEWMGWISGYNGDTNYAQKLQGRVTMTTDTSTNTAYMELRSLRSDDTAIYYCTRDLPGLNWAYSYDYMDVWGRGTLVTVSSGGGGSGGGGSGGGGSAQAVLTQPSSLSASPGTSASLTCTLRSGINVGTYRIYWYQQKPGSPPHFLLRYKSDSDKQQGSGVPSRFSGSKDASANAGILLISGLQSDDEADYYCMIWHSSAWVFGGGTKVTVLG
  binding: binds
